According to article PMC6529519:
These are yes or no findings as the source states them, for the method shown. For part of these data: Binding seen in cells or lysates may run through a third protein. Some binding calls cover weakened binding; strength is not graded here.

By UniProt entry, the sequences of proteins in these tests, tags left out.
UniProt Q01196: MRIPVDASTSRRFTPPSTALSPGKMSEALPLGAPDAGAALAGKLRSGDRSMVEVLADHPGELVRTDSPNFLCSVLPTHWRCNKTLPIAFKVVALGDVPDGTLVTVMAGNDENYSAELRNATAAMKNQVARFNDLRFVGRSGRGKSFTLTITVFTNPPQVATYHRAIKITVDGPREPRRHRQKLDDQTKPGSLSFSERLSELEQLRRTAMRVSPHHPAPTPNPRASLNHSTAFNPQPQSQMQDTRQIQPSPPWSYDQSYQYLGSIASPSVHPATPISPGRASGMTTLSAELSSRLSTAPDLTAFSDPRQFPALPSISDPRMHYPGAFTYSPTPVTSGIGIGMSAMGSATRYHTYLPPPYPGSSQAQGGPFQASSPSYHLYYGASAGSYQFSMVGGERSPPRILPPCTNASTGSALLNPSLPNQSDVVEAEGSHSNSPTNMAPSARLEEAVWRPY
UniProt P48436: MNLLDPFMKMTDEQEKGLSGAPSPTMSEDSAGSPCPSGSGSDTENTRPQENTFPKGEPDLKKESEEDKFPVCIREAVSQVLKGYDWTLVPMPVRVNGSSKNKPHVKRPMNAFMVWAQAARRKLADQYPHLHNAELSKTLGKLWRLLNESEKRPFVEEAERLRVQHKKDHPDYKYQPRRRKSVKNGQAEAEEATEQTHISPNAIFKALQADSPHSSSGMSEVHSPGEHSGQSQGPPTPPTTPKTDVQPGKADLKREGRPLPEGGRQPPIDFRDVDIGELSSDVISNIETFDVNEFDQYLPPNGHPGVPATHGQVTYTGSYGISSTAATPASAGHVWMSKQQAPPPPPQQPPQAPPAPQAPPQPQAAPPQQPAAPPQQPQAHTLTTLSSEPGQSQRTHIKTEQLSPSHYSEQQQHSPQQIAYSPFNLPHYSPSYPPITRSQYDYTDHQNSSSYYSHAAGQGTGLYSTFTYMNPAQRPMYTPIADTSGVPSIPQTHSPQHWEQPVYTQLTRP
UniProt P35712: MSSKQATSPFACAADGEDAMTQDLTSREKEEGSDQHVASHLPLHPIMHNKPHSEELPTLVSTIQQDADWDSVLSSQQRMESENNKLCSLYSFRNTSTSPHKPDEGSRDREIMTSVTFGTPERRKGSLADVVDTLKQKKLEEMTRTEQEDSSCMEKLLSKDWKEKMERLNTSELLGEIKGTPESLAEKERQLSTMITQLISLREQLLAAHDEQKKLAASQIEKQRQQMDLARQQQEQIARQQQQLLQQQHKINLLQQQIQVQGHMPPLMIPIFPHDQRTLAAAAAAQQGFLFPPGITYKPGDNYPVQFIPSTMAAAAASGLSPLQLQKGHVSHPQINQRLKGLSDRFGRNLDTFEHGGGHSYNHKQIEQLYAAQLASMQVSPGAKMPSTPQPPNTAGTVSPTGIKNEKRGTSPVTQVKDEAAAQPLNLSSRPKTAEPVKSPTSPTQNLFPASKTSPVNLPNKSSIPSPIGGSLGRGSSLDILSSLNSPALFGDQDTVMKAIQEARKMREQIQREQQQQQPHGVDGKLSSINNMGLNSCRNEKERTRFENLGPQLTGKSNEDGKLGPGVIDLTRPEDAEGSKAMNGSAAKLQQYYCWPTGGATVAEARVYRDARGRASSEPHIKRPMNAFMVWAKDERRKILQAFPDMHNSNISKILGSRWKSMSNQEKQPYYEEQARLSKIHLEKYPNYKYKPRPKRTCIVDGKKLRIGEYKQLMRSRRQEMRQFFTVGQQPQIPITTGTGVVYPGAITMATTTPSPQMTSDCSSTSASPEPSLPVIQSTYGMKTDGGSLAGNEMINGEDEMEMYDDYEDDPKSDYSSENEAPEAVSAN
UniProt P35711: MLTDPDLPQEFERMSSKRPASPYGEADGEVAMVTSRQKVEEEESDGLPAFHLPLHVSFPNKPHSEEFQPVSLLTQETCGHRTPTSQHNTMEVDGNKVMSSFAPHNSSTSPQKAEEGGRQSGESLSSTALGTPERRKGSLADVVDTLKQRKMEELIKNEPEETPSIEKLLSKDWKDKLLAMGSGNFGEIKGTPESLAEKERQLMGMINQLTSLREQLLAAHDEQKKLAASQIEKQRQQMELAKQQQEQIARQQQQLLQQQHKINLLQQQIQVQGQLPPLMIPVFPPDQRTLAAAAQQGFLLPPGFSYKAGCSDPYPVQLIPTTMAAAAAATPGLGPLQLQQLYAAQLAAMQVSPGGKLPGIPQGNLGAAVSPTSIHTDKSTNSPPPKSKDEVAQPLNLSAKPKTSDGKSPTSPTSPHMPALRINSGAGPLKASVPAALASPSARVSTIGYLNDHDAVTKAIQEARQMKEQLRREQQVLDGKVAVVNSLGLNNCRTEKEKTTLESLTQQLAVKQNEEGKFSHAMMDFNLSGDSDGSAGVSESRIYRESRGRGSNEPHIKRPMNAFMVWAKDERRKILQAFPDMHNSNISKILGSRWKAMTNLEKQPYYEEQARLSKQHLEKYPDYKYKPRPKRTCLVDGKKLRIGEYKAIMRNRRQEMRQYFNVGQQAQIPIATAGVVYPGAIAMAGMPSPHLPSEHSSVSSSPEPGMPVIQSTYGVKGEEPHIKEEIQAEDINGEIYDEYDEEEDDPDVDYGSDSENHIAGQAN

Each substance was assayed against GAL4–Runx1 FL (full-length Runx1) (UniProt Q01196) (assay: two-hybrid; Checkmate Mammalian Two-Hybrid System; GAL4–Runx1 constructs and VP16–Sox proteins with a luciferase reporter with GAL4 binding sites, transfected into HuH-7 cells).

| binding | Substance |
| --- | --- |
| binds | VP16–Sox9 (from UniProt P48436 1-509) |
| binds | VP16–Sox6 (from UniProt P35712 1-828) |
| binds | VP16–Sox5 (from UniProt P35711 1-763) |

Each substance was assayed against Runx1 overexpressed in HEK293 cells (UniProt Q01196) (assay: co-IP; HEK293 cells overexpressing Runx1 and the Sox proteins (Supplementary Fig. S3)).

| binding | Substance |
| --- | --- |
| binds | Sox6 overexpressed in HEK293 cells (from UniProt P35712 1-828) |
| binds | Sox5 overexpressed in HEK293 cells (from UniProt P35711 1-763) |
| binds | Sox9 overexpressed in HEK293 cells (from UniProt P48436 1-509) |

The substances below were run against Runt-related transcription factor 1 (Runx1), endogenous in human articular chondrocytes (human (endogenous in human articular chondrocytes)) (UniProt Q01196) (assay: co-IP; whole cell lysates of human articular chondrocytes (M-PER kit); endogenous proteins; Catch and Release kit; IP with one antibody, immunoblot with the other).

| binding | Substance |
| --- | --- |
| binds | Sox5, endogenous in human articular chondrocytes (from UniProt P35711 1-763) |
| binds | Sox9, endogenous in human articular chondrocytes (from UniProt P48436 1-509) |
| binds | Sox6, endogenous in human articular chondrocytes (from UniProt P35712 1-828) |
